These are yes or no findings as the source states them, for the method shown. In cells and extracts the contact can be indirect. Some binding calls cover weakened binding; strength is not graded here.
Columns and labels:
[1] = biological target: T1, RhoGDI3 (human (endogenous in hTERT-HPNE, BxPC3 and PANC-1)) (UniProt Q99819); assay: co-IP; lysates of hTERT-HPNE, BxPC3 and PANC-1 immunoprecipitated with anti-RhoGDI3 on protein G, blotted with anti-RhoG; unrelated antibody as control; lysis buffer 50 mM Tris pH 6.8, NaCl 2M, Triton X-100 1%
T1 sequence: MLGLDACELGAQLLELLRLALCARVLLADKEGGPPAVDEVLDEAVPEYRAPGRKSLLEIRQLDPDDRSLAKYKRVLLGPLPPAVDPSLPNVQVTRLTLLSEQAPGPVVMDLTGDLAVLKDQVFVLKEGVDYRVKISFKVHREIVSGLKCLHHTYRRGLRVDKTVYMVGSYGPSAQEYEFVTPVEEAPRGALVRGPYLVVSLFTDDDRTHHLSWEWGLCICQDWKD

Amino acid sequences for entries named in this document (tags omitted).
UniProt P62745: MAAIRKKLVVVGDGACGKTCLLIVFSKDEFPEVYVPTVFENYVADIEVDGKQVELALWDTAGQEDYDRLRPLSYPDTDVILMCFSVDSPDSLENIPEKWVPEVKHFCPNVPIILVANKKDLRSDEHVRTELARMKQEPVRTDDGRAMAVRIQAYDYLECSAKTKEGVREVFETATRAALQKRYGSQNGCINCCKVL
UniProt P84095: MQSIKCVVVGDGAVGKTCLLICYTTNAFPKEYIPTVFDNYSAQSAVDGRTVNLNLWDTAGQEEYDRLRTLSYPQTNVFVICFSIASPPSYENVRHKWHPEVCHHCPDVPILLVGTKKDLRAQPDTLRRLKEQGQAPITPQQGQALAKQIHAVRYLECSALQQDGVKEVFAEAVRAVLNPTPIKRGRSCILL

[2] = biological target: RhoB GTPase (human (endogenous in hTERT-HPNE, BxPC3 and PANC-1)) (UniProt P62745); assay: co-IP; lysate of hTERT-HPNE immunoprecipitated with anti-RhoB on protein G, blotted with anti-RhoGDI3; unrelated antibody as control; lysis buffer 50 mM Tris pH 6.8, NaCl 2M, Triton X-100 1%

RhoG GTPase (from UniProt P84095 1-191)
binding [1]: binds

B1: RhoGDI3 (protein, UniProt Q99819 1-225)
chain: MLGLDACELGAQLLELLRLALCARVLLADKEGGPPAVDEVLDEAVPEYRAPGRKSLLEIRQLDPDDRSLAKYKRVLLGPLPPAVDPSLPNVQVTRLTLLSEQAPGPVVMDLTGDLAVLKDQVFVLKEGVDYRVKISFKVHREIVSGLKCLHHTYRRGLRVDKTVYMVGSYGPSAQEYEFVTPVEEAPRGALVRGPYLVVSLFTDDDRTHHLSWEWGLCICQDWKD
binding [2]: binds
